“Also recorded” adds a separate entry of the source.
How the values were obtained:
[1] = clinical; settings: human, in vivo; for AUC(0-inf): AUC0–inf
[2] = first-in-human study, cited from earlier work
[3] = tested on: advanced or metastatic gastrointestinal malignancies; settings: in vivo; cited from earlier work
[4] = tested on: patients with advanced solid tumors; assay: Phase Ib dose-escalation (3 + 3) of elimusertib with cisplatin: safety, DLT, MTD
[5] = All patients (n=15), elimusertib with cisplatin
[6] = Patients at MTD (n=6), elimusertib with cisplatin
[7] = elimusertib with cisplatin, all patients

SMILES: C[C@@H]1COCCN1c1cc(-c2ccnn2C)c2ccnc(-c3ccn[nH]3)c2n1 [elimusertib]
- AUC(0-inf) ([1]; 10 mg, plasma, day 2, geometric mean (SD), dose level 0, 10 mg twice daily on days 2 and 9 (n = 3), last sample 8 hours): 2.1 µg·h/mL
- Cmax ([1]; 10 mg, for each 10 mg dose, very similar to the previous report): ~0.2 µg/mL
- Cmax ([1]; 10 mg, plasma, day 2, geometric mean (SD), dose level 0, 10 mg twice daily on days 2 and 9 (n = 3)): 0.194 µg/mL
- AUC(0-inf) ([1]; 20 mg, plasma, day 2, geometric mean (SD), dose level 1, 20 mg twice daily on days 2 and 9 (n = 3), last sample 8 hours): 7.01 µg·h/mL
- AUC(0-inf) ([1]; 20 mg, plasma, day 2, geometric mean (SD), dose level −1, 20 mg once a day on days 2 and 9 (n = 3), last sample 24 hours): 3.69 µg·h/mL
- AUC(0-inf) ([1]; 20 mg, plasma, day 2, geometric mean (SD), dose level −2, 20 mg once a day on day 2 (n = 6), last sample 24 hours): 5.21 µg·h/mL
- Cmax ([1]; 20 mg, plasma, day 2, geometric mean (SD), dose level 1, 20 mg twice daily on days 2 and 9 (n = 3)): 0.625 µg/mL
- Cmax ([1]; 20 mg, plasma, day 2, geometric mean (SD), dose level −1, 20 mg once a day on days 2 and 9 (n = 3)): 0.355 µg/mL
- Cmax ([1]; 20 mg, plasma, day 2, geometric mean (SD), dose level −2, 20 mg once a day on day 2 (n = 6)): 0.472 µg/mL
- Tmax ([2]; previously reported value): 1 h
- half-life ([2]; prior value): 11.5 h
- PK [3]: unremarkable PK
- Alkaline phosphatase increase, Grade 1-2 [4, 5]: 2 (13%) n(%)
- Anemia, Grade 1-2 [4, 5]: 5 (33%) n(%)
- Anemia, Grade 3 or higher [4, 5]: 5 (33%) n(%)
- Anorexia, Grade 1-2 [4, 5]: 4 (27%) n(%)
- Anorexia, Grade 3 or higher [4, 5]: 1 (7%) n(%)
- Creatinine increase, Grade 1-2 [4, 5]: 2 (13%) n(%)
- Creatinine increase, Grade 3 or higher [4, 5]: 1 (7%) n(%)
- Dehydration, Grade 1-2 [4, 5]: 1 (7%) n(%)
- Diarrhea, Grade 1-2 [4, 5]: 1 (7%) n(%)
- Dysgeusia, Grade 1-2 [4, 5]: 2 (13%) n(%)
- Dyspepsia, Grade 1-2 [4, 5]: 2 (13%) n(%)
- Epistaxis, Grade 1-2 [4, 5]: 1 (7%) n(%)
- Fatigue, Grade 1-2 [4, 5]: 7 (47%) n(%)
- Fatigue, Grade 3 or higher [4, 5]: 2 (13%) n(%)
- Febrile neutropenia, Grade 3 or higher [4, 5]: 2 (13%) n(%)
- Gastroesophageal reflux disease, Grade 1-2 [4, 5]: 1 (7%) n(%)
- Generalized muscle weakness, Grade 1-2 [4, 5]: 1 (7%) n(%)
- Hypoalbuminemia, Grade 1-2 [4, 5]: 1 (7%) n(%)
- Hypokalemia, Grade 1-2 [4, 5]: 2 (13%) n(%)
- Hypokalemia, Grade 3 or higher [4, 5]: 1 (7%) n(%)
- Hypomagnesemia, Grade 1-2 [4, 5]: 5 (33%) n(%)
- Hyponatremia, Grade 1-2 [4, 5]: 2 (13%) n(%)
- Leukopenia, Grade 1-2 [4, 5]: 1 (7%) n(%)
- Leukopenia, Grade 3 or higher [4, 5]: 8 (53%) n(%)
- Lung infection, Grade 3 or higher [4, 5]: 1 (7%) n(%)
- Lymphopenia, Grade 1-2 [4, 5]: 6 (40%) n(%)
- Lymphopenia, Grade 3 or higher [4, 5]: 2 (13%) n(%)
- Neutropenia, Grade 3 or higher [4, 5]: 9 (60%) n(%)
- Peripheral sensory neuropathy, Grade 1-2 [4, 5]: 3 (20%) n(%)
- Sepsis, Grade 3 or higher [4, 5]: 1 (7%) n(%)
- Syncope, Grade 3 or higher [4, 5]: 1 (7%) n(%)
- Thrombocytopenia, Grade 1-2 [4, 5]: 1 (7%) n(%)
- Thrombocytopenia, Grade 3 or higher [4, 5]: 7 (47%) n(%)
- Transaminitis, Grade 1-2 [4, 5]: 1 (7%) n(%)
- Transaminitis, Grade 3 or higher [4, 5]: 1 (7%) n(%)
- Wound dehiscence, Grade 1-2 [4, 5]: 1 (7%) n(%)
- DLTs observed (by patient) ([4]; DL 0: elimusertib 10 mg orally twice daily on days 2 and 9, cisplatin 60 mg/m^2 intravenously on day 1): Patient 1 Grade 4: neutropenia; also recorded: Patient 2 Grade 4: febrile neutropenia, thrombocytopenia
- DLTs observed (by patient) ([4]; DL 1: elimusertib 20 mg orally twice daily on days 2 and 9, cisplatin 60 mg/m^2 intravenously on day 1): Patient 1 Grade 3: creatinine increase, fatigue Grade 4: neutropenia, thrombocytopenia; also recorded: Patient 2 Grade 4: neutropenia; also recorded: Patient 3 Grade 4: hypokalemia, thrombocytopenia
- DLTs observed (by patient) ([4]; DL −1: elimusertib 20 mg orally once a day on days 2 and 9, cisplatin 30 mg/m^2 intravenously on days 1 and 8): Patient 1 Grade 3: syncope; also recorded: Patient 2 Grade 4: thrombocytopenia
- DLTs observed (by patient) ([4]; DL −2: elimusertib 20 mg orally once a day on day 2, cisplatin 30 mg/m^2 intravenously on days 1 and 8): Grade 3: fatigue Grade 4: neutropenia, thrombocytopenia
- Anemia, Grade 3 or higher [4, 6]: 3 (50%) n(%)
- Anorexia, Grade 1-2 [4, 6]: 2 (33%) n(%)
- Creatinine increase, Grade 1-2 [4, 6]: 1 (17%) n(%)
- Diarrhea, Grade 1-2 [4, 6]: 1 (17%) n(%)
- Dysgeusia, Grade 1-2 [4, 6]: 2 (33%) n(%)
- Fatigue, Grade 1-2 [4, 6]: 2 (33%) n(%)
- Fatigue, Grade 3 or higher [4, 6]: 1 (17%) n(%)
- Hypokalemia, Grade 1-2 [4, 6]: 2 (33%) n(%)
- Hypomagnesemia, Grade 1-2 [4, 6]: 2 (33%) n(%)
- Leukopenia, Grade 1-2 [4, 6]: 2 (33%) n(%)
- Leukopenia, Grade 3 or higher [4, 6]: 2 (33%) n(%)
- Lymphopenia, Grade 1-2 [4, 6]: 3 (50%) n(%)
- Lymphopenia, Grade 3 or higher [4, 6]: 1 (17%) n(%)
- Neutropenia, Grade 3 or higher [4, 6]: 3 (50%
- Thrombocytopenia, Grade 3 or higher [4, 6]: 3 (50%) n(%)
- patients requiring elimusertib dose reduction due to toxicity ([4]; at the MTD): one
- maximum tolerated dose (MTD) ([4]; dose level −2: elimusertib orally once on day 2 with cisplatin 30 mg/m^2 intravenously on days 1 and 8, 21-day cycle): 20 mg
- patients requiring dose holds of elimusertib on day 9 ([4]; dose levels that included day 9 of elimusertib, out of nine patients): three
- patients who died due to protocol therapy ([4]; eight of 15 patients had died at data cutoff): none
- grade 3 or higher AEs at the MTD ([4]; elimusertib 20 mg once on day 2, cisplatin 30 mg/m^2 on days 1 and 8): anemia, fatigue, leukopenia, lymphopenia, neutropenia, and thrombocytopenia
- dose-limiting toxicities (DLT) requiring dose de-escalation ([4]; elimusertib with cisplatin, all dose levels): creatinine increase, hypokalemia, febrile neutropenia, neutropenia, syncope, and thrombocytopenia
- Grade 3 serious adverse events (SAEs): anemia [4, 7]: 4 n
- Grade 3 serious adverse events (SAEs): anorexia [4, 7]: 1 n
- Grade 3 serious adverse events (SAEs): creatinine increase [4, 7]: 1 n
- Grade 3 serious adverse events (SAEs): fatigue [4, 7]: 2 n
- Grade 3 serious adverse events (SAEs): febrile neutropenia [4, 7]: 1 n
- Grade 3 serious adverse events (SAEs): leukopenia [4, 7]: 4 n
- Grade 3 serious adverse events (SAEs): lung infection [4, 7]: 1 n
- Grade 3 serious adverse events (SAEs): lymphopenia [4, 7]: 2 n
- Grade 3 serious adverse events (SAEs): neutropenia [4, 7]: 5 n
- Grade 3 serious adverse events (SAEs): syncope [4, 7]: 1 n
- Grade 3 serious adverse events (SAEs): transaminitis [4, 7]: 1 n
- Grade 4 SAEs: febrile neutropenia [4, 7]: 1 n
- Grade 4 SAEs: hypokalemia [4, 7]: 1 n
- Grade 4 SAEs: leukopenia [4, 7]: 4 n
- Grade 4 SAEs: neutropenia [4, 7]: 4 n
- Grade 4 SAEs: thrombocytopenia [4, 7]: 7 n
- Grade 5 sepsis resulting in death (patients) [4, 7]: one
- patients who discontinued due to AEs ([4]; n = 5 of 15, including a patient who died): 33%

— article PMC12580894 (Cancer Research Communications, 2025)
